Assay results: patent publication US8809342B2, “Glucagon receptor modulators” (Pfizer Inc., priority 2010, dated 2014)
The match of structure and compound is tentative.

By UniProt entry, the sequences of proteins in these tests, tags left out. Residues count along the entry.
UniProt P47871, 26-477 limits assumed: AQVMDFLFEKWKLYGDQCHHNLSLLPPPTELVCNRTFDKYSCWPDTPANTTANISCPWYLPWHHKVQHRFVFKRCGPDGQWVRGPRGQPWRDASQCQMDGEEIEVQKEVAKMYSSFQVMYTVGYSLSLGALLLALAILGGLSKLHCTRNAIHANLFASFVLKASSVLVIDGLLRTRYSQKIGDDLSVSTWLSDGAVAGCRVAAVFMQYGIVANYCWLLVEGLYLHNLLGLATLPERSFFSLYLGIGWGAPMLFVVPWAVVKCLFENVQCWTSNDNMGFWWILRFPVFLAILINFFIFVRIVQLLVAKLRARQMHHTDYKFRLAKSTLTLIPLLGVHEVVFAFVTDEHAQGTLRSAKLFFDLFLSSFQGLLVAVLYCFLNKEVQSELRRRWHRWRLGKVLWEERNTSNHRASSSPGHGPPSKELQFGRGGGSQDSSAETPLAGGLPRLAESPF

Biological target: human glucagon receptor (Homo sapiens, UniProt P47871)
Assay: Glucagon cAMP assay (Cisbio cAMP detection)
Type: cell-based
Settings: read-out: cAMP kb (nm); CHOK1 cells stably transfected with the human glucagon receptor; 100 pM glucagon challenge; Kb calculated from IC50 with a modified Cheng-Prusoff equation

## Cc1cc(NC(CC(C)C)c2ccc(C(=O)NCCC(=O)O)cn2)cc(C)c1-c1ccc(C(F)(F)F)cc1 (stereo not shown)
  Kb: 310 nM
